Test results from PubChem BioAssay AID1347423 (Functional Genomics Laboratory (NCATS/FGL), 2020).
Hit rate of the full screen: of about 52,000 sequences, about 210 (0.4%) were called active.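 How the source made its calls: active means gene whose silencing raises cell survival under the drug, median off-target-corrected z-score across its silencing RNAs 2 or more; inactive means the rest.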 Some of the results follow.

Experiment: Resistance to Poly (ADP-Ribose) Polymerase inhibitor: Gene Identification via Genome-wide siRNA Screen
Conditions: mouse BRCA2 R2336H ES cells, olaparib, CellTiter-Glo viability; stronger effect = higher value
In short: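 Mouse BRCA2 R2336H ES cells were reverse-transfected with siRNA (20 nM final), treated at 48 h with 500 nM olaparib, and read by CellTiter-Glo after 72 h. Scores: MAD-based z per siRNA, median per gene, seed off-target correction.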

Sequence	z-score
GCUCCUAUCUACAGCUCUUTT against Samd4	inactive: -2.08
CGGAUUAAACAUAGUAACUTT against 1700020H15	inactive: -0.288
GGACUCAAGAGUGAUUUCUTT against Ncoa5	inactive: -0.724
GCUUCAUCUAAAGGAUAAGTT against Rcn2	inactive: 1.1
GGAAACCUGAUACUAACAATT against Afmid	inactive: -1.13
GCUUUGAAAUCUGAAUCAGTT against Terf2	inactive: 1.12
CGGUCAAAUGUUGGAAGAUTT against Trappc3	inactive: 0.358
UGUCAGCGAGGAAUAACCCTT against Olfr503	inactive: 0.244
GUUUUUAGGUUGAGAAACUTT against V1rh13	inactive: -1.03
UUCUUGACAGCUGGAAGAGTT against Iigp5	inactive: 1.07
GGUCAUAGAGCUUUAGAUUTT against 4432416J03Rik	inactive: -0.252
GGUUUCUGAUUUCAUCAGUTT against D13Wsu14e	inactive: 0.0293
GCAGUCAUACAGAUUUUGGTT against Slc15a4	inactive: -0.732
GCCAAAGCCGAAUGAGAGGTT against Rtn2	inactive: -0.132
GGUGAUCAUUCUGGCAGCUTT against Olfr1215	inactive: 1.4
CCACGAGAAGUGGAUAUUATT against B130016O10Rik	inactive: -1.13
GGAAUUGUCCCGGAAGAGGTT against Nipa	inactive: 1.07
GGAAGGAAAAGGAUAAAAGTT against Fbxo43	inactive: 0.608
CGGGUUCUACUAUCAUGCATT against Ltbp4	inactive: 0.425
GGCCUGAAAAGACUGAUAATT against V2r1b	inactive: 0.567
GGUACUCAUUUGUUACCAGTT against Gpr45	inactive: -1.53
GGAGAGUUCACACAGACUGTT against Whrn	inactive: -2.05

Sequence	z-score
CGAAUGGCUGACCAUAAAATT against Sdro	inactive: 0.363
GGAAAUAUCUCUGGUAAUATT against Reln	inactive: -0.677
GGGAGAAGGUAAAAGAAAATT against 4931417A20	inactive: 0.821
GGUUCACCAUCAAGUCGGATT against Src	inactive: 1.93
GGAAAUGUCAUGCUUUCAGTT against V1rc5	inactive: 1.12
GGAUCAAAUGGAAUGUUCUTT against Ccl25	inactive: -1.41
GGAUGCUCAUGCUAAGCAGTT against Krt2-7	inactive: -1.05
GGGUUUUGAACACUACAUCTT against Leng5	inactive: -1.57
GAUCCACCCAUCCUACUGUTT against 3322402L07Rik	inactive: -0.605
GGACUACACAAUUUUCCCUTT against Proz	inactive: -0.0898
GGAACUAUCGGCUCUUUCUTT against Zdhhc1	inactive: -0.63
GGACACUUAGCAGCAAAGGTT against Lsm7	inactive: -1.42
CCUCAUAUGGAACCUGCAUTT against 8430429K09Rik	inactive: -0.96
GCUCUGAUGGUCUACUGCUTT against Rgs3	inactive: 0.0266
GGAUGUGCCAAGAUUUGCCTT against Fzd3	inactive: -0.83
ACUUCGUAAAAGAGCACAATT against LOC435366	inactive: 0.889
GCCCAAUAGCCUAGGACCUTT against 4933412E14Rik	inactive: 0.884
GGAGUAGCCACUGAGGACUTT against D2Ertd145e	inactive: -1.66
GGAAGUGAGAUGUCACUGATT against A430110N23	inactive: 0.136
GGACUUCACAAGAGUAUUATT against 9430022A14	inactive: -0.534
GCCAGAAUAAACAUUAGUGTT against 1700007N18Rik	inactive: 0.527
GCUACUUUGACAUGCACACTT against Drd1ip	inactive: 0.131

Sequence	z-score
GCCAGAAACUAAUGAGAUCTT against 1110001E17Rik	active: 1.17
GGAUGAAUGGUUUAUUGUUTT against 5730461K03Rik	inactive: -1.29
GGAUCUUGAGUUUACCAAATT against Uqcrc2	inactive: -0.951
CCUCUUCCAGAGAUGUAGCTT against Fos	inactive: 0.118
GGCUACGGUGAUAGAGAUGTT against Rbmxrt	inactive: -0.583
CCCGAGAACAUCUUGUACGTT against Rps6ka4	inactive: -0.639
GGGUAUUUUACCACUACUUTT against Psg23	inactive: 0.898
GGGAGUUUAUUCAAAAGUGTT against Nrbp	inactive: 0.522
GGAUCAUUUCAAAACACACTT against Kcnh1	inactive: 0.544
GGAGAUGCACAAAAGAAUATT against Slc35d1	inactive: -0.0886
GGACAAAGAAACUCAUAGGTT against A530021J07	inactive: 1.45
GGAAUUCUUCAGGUGGAUATT against BC013529	inactive: -0.474
GCCAUAAGAUGCUACAGUGTT against 2310057H16Rik	inactive: 0.168
GCGGACUACUAUGCUAAAGTT against Tgfb1	inactive: 0.757
GGGCCAAAUAGCUAUGCAGTT against BC008184	inactive: -0.343
GCGACACAUAUUAACCAAATT against 8430408H12Rik	inactive: 0.0757
GGAGUAGAUCCAAAUGCACTT against Klhl4	inactive: 1.2
GCACCAGUGAUAUUUUUACTT against Tas2r110	inactive: 0.19
CGACAUGCCUAUCUACAUGTT against Epha2	inactive: 0.0637
GGCCGAGUAGCUGAUGAAATT against Dhx35	inactive: 0.61
CCUUUGACUAAUCGUUUUGTT against Cln2	inactive: 0.812
GGAGAUCUCCAUCAUCACCTT against 4930511O11Rik	inactive: -0.697
